PubChem BioAssay AID1259254 | NCATS – 2017
In all, the deposit lists about 59,000 reagents; this is an unselected part. About 1,550 of them (2.6%) count as active. 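G2 share is only a proxy for re-replication; each gene was hit by three separate siRNAs, and active genes were retested.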 Raw values are not corrected between plates. Reagents against one gene are numbered here. Not stated in the record: the amount of reagent.

- Aim: 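Gene knock-downs that lead to re-replication, shown by excess G2 DNA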 (primary screen)
- Cell system: human HCT116 colorectal cancer cells
- Reagent: single siRNA against human genes
- Time to read-out: 3 days
- Detection: 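Imaged Hoechst DNA stain sorts each cell into a cycle phase by DNA amount; per plate, G2 fraction set to 0% for non-targeting and 100% for GMNN siRNA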
- Reading the numbers: G2 robust z-score and G2 cells, % of GMNN control: higher = more G2 cells, more excess DNA replication; raw share of cells in G2: higher = larger share of cells with G2 DNA content
- Hit rule: 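An siRNA counts as active if its G2 robust z-score lies at least 5 MADs above the screen median; here such calls match roughly 38% of GMNN control or more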

The first 5 records, to show the layout:
G2 robust z-score | G2 cells, % of GMNN control | raw share of cells in G2 (%) | activity call | gene symbol | reagent
-0.0511 | 2.61 | 6.09 | inactive | ERMAP | 1
3.13 | 25 | 13.9 | inactive | ERMAP | 2
-0.238 | 1.3 | 6.27 | inactive | ERMAP | 3
-0.216 | 1.45 | 4.46 | inactive | IFIT5 | 1
-0.796 | -2.64 | 4.97 | inactive | IFIT5 | 2

Results, from the first entry:
G2 robust z-score | G2 cells, % of GMNN control | raw share of cells in G2 (%) | activity call | gene symbol | reagent
-0.0511 | 2.61 | 6.09 | inactive | ERMAP | 1
3.13 | 25 | 13.9 | inactive | ERMAP | 2
-0.238 | 1.3 | 6.27 | inactive | ERMAP | 3
-0.216 | 1.45 | 4.46 | inactive | IFIT5 | 1
-0.796 | -2.64 | 4.97 | inactive | IFIT5 | 2
2.03 | 17.3 | 9.93 | inactive | IFIT5 | 3
-0.586 | -1.15 | 3.63 | inactive | ZBED10P | 1
-0.631 | -1.47 | 2.89 | inactive | ZBED10P | 2
0.224 | 4.54 | 3.15 | inactive | ZBED10P | 3
3.47 | 27.4 | 14.7 | inactive | VSIG2 | 1
1.7 | 14.9 | 10.4 | inactive | VSIG2 | 2
1.7 | 14.9 | 8.52 | inactive | VSIG2 | 3
3.56 | 28 | 15.7 | inactive | FAM174C | 1
-0.226 | 1.38 | 3.58 | inactive | FAM174C | 2
0.25 | 4.73 | 6.34 | inactive | FAM174C | 3
-0.183 | 1.68 | 4.39 | inactive | TMEM86A | 1
-0.554 | -0.934 | 2.62 | inactive | TMEM86A | 2
1.51 | 13.6 | 7.82 | inactive | TMEM86A | 3
4.12 | 32 | 16.2 | inactive | NLRP13 | 1
1.32 | 12.3 | 6.99 | inactive | NLRP13 | 2
-0.295 | 0.895 | 2.9 | inactive | NLRP13 | 3
3.61 | 28.4 | 18.1 | inactive | FAM20B | 1
0.0704 | 3.46 | 5.39 | inactive | FAM20B | 2
-0.204 | 1.53 | 3.96 | inactive | FAM20B | 3
0.534 | 6.72 | 7.99 | inactive | AIRE | 1
3.97 | 30.9 | 14.3 | inactive | AIRE | 2
0.338 | 5.35 | 5.58 | inactive | AIRE | 3
0.0315 | 3.19 | 7.61 | inactive | EML4 | 1
1.67 | 14.7 | 9.07 | inactive | EML4 | 2
-0.701 | -1.97 | 3.35 | inactive | EML4 | 3
-0.49 | -0.477 | 3.44 | inactive | FAM47C | 1
1.51 | 13.6 | 8.57 | inactive | FAM47C | 2
-0.74 | -2.24 | 2.36 | inactive | FAM47C | 3
2.63 | 21.5 | 13.5 | inactive | ADORA1 | 1
-1.06 | -4.47 | 2.96 | inactive | ADORA1 | 2
0.331 | 5.29 | 4.89 | inactive | ADORA1 | 3
-1.17 | -5.29 | 3.4 | inactive | ALDH1L1 | 1
-1.15 | -5.15 | 2.18 | inactive | ALDH1L1 | 2
0.467 | 6.26 | 8.94 | inactive | ALDH1L1 | 3
-0.575 | -1.08 | 4.34 | inactive | LINC00683 | 1
-0.853 | -3.03 | 2.71 | inactive | LINC00683 | 2
-0.619 | -1.38 | 2.97 | inactive | LINC00683 | 3
0.246 | 4.7 | 5.6 | inactive | MCRIP1 | 1
0.00295 | 2.99 | 4.57 | inactive | MCRIP1 | 2
2.54 | 20.9 | 12.6 | inactive | MCRIP1 | 3
-0.441 | -0.133 | 4.1 | inactive | GPR148 | 1
0.763 | 8.33 | 7.84 | inactive | GPR148 | 2
1.26 | 11.8 | 9.2 | inactive | GPR148 | 3
2.64 | 21.5 | 12.7 | inactive | SGK1 | 1
-1 | -4.08 | 4.03 | inactive | SGK1 | 2
-0.588 | -1.17 | 3.61 | inactive | SGK1 | 3
-0.882 | -3.24 | 3.98 | inactive | PAX5 | 1
-0.254 | 1.18 | 5.23 | inactive | PAX5 | 2
-0.826 | -2.84 | 2.23 | inactive | PAX5 | 3
-0.649 | -1.6 | 5.21 | inactive | KRT79 | 1
-0.634 | -1.49 | 4.38 | inactive | KRT79 | 2
-0.792 | -2.6 | 3.33 | inactive | KRT79 | 3
4.3 | 33.2 | 16.9 | inactive | COPB2 | 1
0.133 | 3.9 | 6.31 | inactive | COPB2 | 2
4.44 | 34.2 | 16.9 | inactive | COPB2 | 3
-1.04 | -4.34 | 2.7 | inactive | POLE2 | 1
-0.401 | 0.146 | 5.03 | inactive | POLE2 | 2
-0.437 | -0.108 | 4.64 | inactive | POLE2 | 3
-0.82 | -2.8 | 3.28 | inactive | OR11H1 | 1
0.768 | 8.37 | 7.96 | inactive | OR11H1 | 2
-0.851 | -3.02 | 1.55 | inactive | OR11H1 | 3
-0.767 | -2.43 | 3.39 | inactive | DTWD1 | 1
0.279 | 4.93 | 6.82 | inactive | DTWD1 | 2
-0.639 | -1.53 | 2.54 | inactive | DTWD1 | 3
-0.209 | 1.5 | 5.1 | inactive | NDC1 | 1
-0.046 | 2.64 | 5.23 | inactive | NDC1 | 2
0.942 | 9.6 | 6.2 | inactive | NDC1 | 3
-0.999 | -4.06 | 4.14 | inactive | GZMK | 1
-1 | -4.07 | 3.47 | inactive | GZMK | 2
-0.782 | -2.53 | 2.97 | inactive | GZMK | 3
3.5 | 27.6 | 15.1 | inactive | CARMIL1 | 1
-0.508 | -0.604 | 3.89 | inactive | CARMIL1 | 2
-0.38 | 0.291 | 3.23 | inactive | CARMIL1 | 3
0.95 | 9.65 | 6.03 | inactive | NAPRT | 1
3.73 | 29.2 | 12.2 | inactive | NAPRT | 2
0.0458 | 3.29 | 5.48 | inactive | NAPRT | 3
-0.42 | 0.0143 | 4.49 | inactive | BATF2 | 1
-0.252 | 1.19 | 6.23 | inactive | BATF2 | 2
4.49 | 34.6 | 19.8 | inactive | BATF2 | 3
0.296 | 5.05 | 4.92 | inactive | ZXDB | 1
-0.0896 | 2.34 | 3.9 | inactive | ZXDB | 2
0.55 | 6.84 | 5.92 | inactive | ZXDB | 3
